Measured values: PubChem BioAssay AID493014 (National Center for Advancing Translational Sciences (NCATS), 2011)
The list shows a part of the results. Further columns of the screen follow, without active or inactive calls. Compounds called inactive in the main read-out are mostly missing here. The note in brackets gives the kind of curve behind each potency; many fits are weak.

Assay: qHTS Assay to Find Inhibitors of Chronic Active B-Cell Receptor Signaling
Details: ABC-DLBCL IkBa-CBG/CBR reporter, luminescence ratio (green luciferase fused to IkBa over red control in TMD8 lymphoma cells), 4 h
How it was run: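 TMD8 human ABC-DLBCL cells with doxycycline-inducible IκBα–green luciferase fusion and unfused red luciferase, in 0.5% FBS medium; compounds up to 46 uM, 4 h at 37C. Green/red luminescence ratio, filter-overlap corrected, fitted to concentration-response curves.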

[1] = measured here: CBR red luminescence, cell number
[2] = measured here: IkBa-CBG green luminescence

With `CCCCC(CC)C(=O)Nc1ccc(Cl)cn1` (stereo unspecified) the AC50 [1] was 9.2 µM [rising, partial curve, poor fit].
In the case of `CCOC(=O)c1sc(NC(=O)Cn2nnc3sc4c(c3c2=O)CCCC4)nc1C`, the AC50 [1] was 10 µM [falling, partial curve, poor fit].
In the case of `CCN(C(=O)COc1ccc(C(=O)c2ccccc2)cc1)c1ccccc1`, the AC50 [2] was 35.5 µM [rising, partial curve, poor fit].
With `O=C(N/N=C/C(Br)=C/c1ccccc1)c1ccccc1[N+](=O)[O-]` the AC50 [1] was 7.94 µM [falling, partial curve].
For `Cc1ccc(NC(=O)CNc2ccc(Cl)c(Cl)c2)cc1S(=O)(=O)N(C)C`, the AC50 [1] was 23.1 µM [falling, single point].
In the case of `NC(=O)N=Nc1c2[nH]c3ccccc3nc-2c2ccccc12`, the AC50 [1] was 2.51 µM [falling, full curve, poor fit] and the AC50 [2] was 2.82 µM [rising, full curve].
In the case of `C=CC[C@@H](CC(=O)N(CCO)Cc1ccccc1)C(=O)N[C@H](COC(=O)[C@H](CC=C)CC(=O)OC(C)(C)C)Cc1c[nH]c2ccccc12`, the AC50 [1] was 18.4 µM [falling, partial curve, poor fit].
In the case of `CCOc1ccc(NC(=O)N2CCC(NC(=O)c3ccco3)CC2)cc1`, the AC50 [1] was 6.31 µM [rising, single point].
For `O=C(CCCOc1cccc(Br)c1)NC1CCC(O)CC1` (stereo unspecified), the AC50 [1] was 11.2 µM [falling, partial curve, poor fit].
For `CN(C)c1ccnc2sc(C(N)=O)c(N)c12`, the AC50 [1] was 32.6 µM [falling, single point].
For `C/C(=N\NC(=S)NCCc1ccccc1)c1ccc(Cl)cc1`, the AC50 [1] was 6.51 µM [rising, single point].
For `COc1ccc(/C=c2/sc3n(c2=O)C(c2ccccc2OC)C2=C(N=3)c3ccccc3CC2)cc1O` (stereo unspecified), the AC50 [1] was 35.5 µM [falling, single point].
In the case of `Cc1noc(C)c1S(=O)(=O)Nc1ccc2c(c1)C(=O)N([C@H](C)CO)C[C@H](C)[C@@H](CN(C)C(=O)Nc1ccc3c(c1)OCO3)O2`, the AC50 [1] was 8.2 µM [rising, partial curve, poor fit].
With `Cc1ccc(C(NC(=O)NCCCN2CCOCC2)=C(Cl)Cl)cc1F` the AC50 [1] was 0.092 µM [falling, full curve, poor fit].
In the case of `O=C(Cc1cccs1)NNC(=S)NC(=O)c1ccc(F)c(F)c1`, the AC50 [1] was 1.84 µM [rising, partial curve, poor fit].
In the case of `Cc1cc(=O)[nH]c(-c2ccc(Cl)cc2)n1`, the AC50 [1] was 5.01 µM [rising, full curve].
With `Cc1ccc(NC(=O)CSc2nnc(Cn3cnc4ccccc43)o2)c(C)c1` the AC50 [1] was 35.5 µM [falling, single point].
In the case of `COc1ccc(CNC(=O)c2ccc(NC(=O)C3=CSCCO3)cc2)cc1`, the AC50 [1] was 3.98 µM [rising, full curve, poor fit].
In the case of `O=C(NCc1ccccc1)c1cccc2c1C(=O)c1ccc(/C=C/c3ccccc3)cc1S2(=O)=O`, the AC50 [1] was 1.46 µM [falling, full curve].
With `COc1ccc(NC(=O)c2[nH]c(C)c(C(C)=O)c2C)cc1S(=O)(=O)N1CCOCC1` the AC50 [1] was 23.1 µM [rising, partial curve, poor fit].
In the case of `Cc1ccc(NC(=O)CSc2n[nH]c(-c3ccncc3)n2)cc1C`, the AC50 [1] was 6.51 µM [falling, partial curve, poor fit].
With `COc1ccc(OC)c(-c2cc(C(=O)Nc3ccc(F)cc3F)no2)c1` the AC50 [1] was 0.631 µM [falling, full curve, poor fit].
With `COCC(=O)Nc1ccccc1-c1ccccc1` the AC50 [1] was 4.47 µM [rising, full curve, poor fit].
For `CC1CC(C)CN(C(=O)COC(=O)Cc2ccc(Cl)cc2)C1` (stereo unspecified), the AC50 [1] was 4.47 µM [falling, single point].
In the case of `Oc1ccccc1Nc1nc(NCC2CCCO2)c2ccccc2n1` (stereo unspecified), the AC50 [1] was 35.5 µM [falling, partial curve, poor fit].
With `Cn1c(N)c(C(=O)COC(=O)c2cc(S(=O)(=O)N3CCOCC3)ccc2F)c(=O)n(C)c1=O` the AC50 [2] was 8.2 µM [falling, partial curve, poor fit].
In the case of `CCOC(=O)/C=C/C(=O)OCC(=O)NCc1ccccc1`, the AC50 [1] was 23.1 µM [falling, single point].
In the case of `Cc1ccc(-c2nc(C=Nc3ccccc3)c(O)o2)cc1`, the AC50 [1] was 14.1 µM [falling, single point].
For `C=CCn1c(C)cc(C2=NNC(=NC(C)(C)C)SC2)c1C`, the AC50 [1] was 10.3 µM [rising, partial curve, poor fit].
In the case of `COc1cc(C(=O)NCCOc2cc(C)cc(C)c2)cc(OC)c1OC`, the AC50 [1] was 35.5 µM [falling, single point].
With `CS(=O)(=O)c1ccc(-c2nn[nH]n2)cc1` the AC50 [1] was 13 µM [falling, single point].
In the case of `CC(C)c1cc(=O)n2[nH]c(SCc3ccccc3Cl)nc2n1`, the AC50 [1] was 7.94 µM [falling, partial curve].
With `Cc1ccccc1CN1CCC(n2nccc2NC(=O)c2ccc3c(c2)OCO3)CC1` the AC50 [1] was 0.501 µM [falling, full curve].
For `Cc1nc2ncccn2c1-c1csc(Nc2ccccc2)n1`, the AC50 [1] was 29.1 µM [falling, single point].
In the case of `Clc1ccc2oc(-c3ccccc3)nc2c1`, the AC50 [1] was 23.1 µM [rising, partial curve, poor fit].
With `N#CC1=C(N)NC(=S)C(C(N)=O)C1c1ccccc1F` (stereo unspecified) the AC50 [1] was 35.5 µM [rising, partial curve, poor fit].
With `COc1ccc(NC(=O)c2cc(S(=O)(=O)N3CCCCC3)ccc2N2CCCCC2)cn1` the AC50 [1] was 15.8 µM [falling, single point].
For `O=C(NCCC1=CCCCC1)C(=O)c1c[nH]c2ccccc12`, the AC50 [1] was 20.6 µM [falling, single point].
In the case of `Cn1cc(CN2CCC(C(=O)Nc3cccc(-c4cccc(F)c4)c3)CC2)cn1`, the AC50 [1] was 4.47 µM [falling, single point].
With `C=CCOC(=O)C1=C(C)NC(SCC(=O)Nc2nccs2)=C(C#N)C1c1cccs1` (stereo unspecified) the AC50 [1] was 12.6 µM [falling, partial curve].
